Data taken from article PMC8384837.
Where a chain is given by its changes, count along the chain named. The list shows a part of the results. For some assays here: At the low end of the ranking the order means little.

Tests used:
Settings in all cases: yeast three-hybrid, YBZ-1, SC-Leu-His + 0.5 mM 3-AT, 4 days
[1] = target: T1, PUM1 PUF domain R4-CNC N971C + H972N + Q975C (UniProt Q14671)
T1 sequence: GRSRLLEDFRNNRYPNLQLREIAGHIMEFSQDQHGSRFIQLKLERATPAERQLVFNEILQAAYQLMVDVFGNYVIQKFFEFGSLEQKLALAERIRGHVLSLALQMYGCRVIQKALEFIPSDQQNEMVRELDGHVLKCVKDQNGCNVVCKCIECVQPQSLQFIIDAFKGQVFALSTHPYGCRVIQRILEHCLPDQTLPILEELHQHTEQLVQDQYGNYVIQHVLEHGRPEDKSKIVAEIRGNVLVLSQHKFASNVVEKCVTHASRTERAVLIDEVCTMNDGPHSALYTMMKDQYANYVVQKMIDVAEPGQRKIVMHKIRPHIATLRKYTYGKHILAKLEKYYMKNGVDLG

[2] = target: T2, PUM1 PUF domain R4-CNG N971C + H972N + Q975G (UniProt Q14671)
T2 sequence: T1 sequence with C148G

[3] = target: T3, PUM1 PUF domain R4-CNS N971C + H972N + Q975S (Homo sapiens) (UniProt Q14671)
T3 sequence: T1 sequence with C148S

[4] = target: T4, PUM1 PUF domain R4-CNV N971C + H972N + Q975V (UniProt Q14671)
T4 sequence: T1 sequence with C148V

[5] = target: T5, PUM1 PUF domain R4-CPG N971C + H972P + Q975G (UniProt Q14671)
T5 sequence: T1 sequence with N145P, C148G

[6] = target: T6, PUM1 PUF domain R4-CPL N971C + H972P + Q975L (UniProt Q14671)
T6 sequence: T1 sequence with N145P, C148L

[7] = target: T7, PUM1 PUF domain R4-CPT N971C + H972P + Q975T (Homo sapiens) (UniProt Q14671)
T7 sequence: T1 sequence with N145P, C148T

[8] = target: T8, PUM1 PUF domain R4-CPV N971C + H972P + Q975V (UniProt Q14671)
T8 sequence: T1 sequence with N145P, C148V

[9] = target: T9, PUM1 PUF domain R4-CRA N971C + H972R + Q975A (UniProt Q14671)
T9 sequence: T1 sequence with N145R, C148A

[10] = target: T10, PUM1 PUF domain R4-CRG N971C + H972R + Q975G (Homo sapiens) (UniProt Q14671)
T10 sequence: T1 sequence with N145R, C148G

[11] = target: T11, PUM1 PUF domain R4-CRL N971C + H972R + Q975L (Homo sapiens) (UniProt Q14671)
T11 sequence: T1 sequence with N145R, C148L

[12] = target: T12, PUM1 PUF domain R4-CRR N971C + H972R + Q975R (Homo sapiens) (UniProt Q14671)
T12 sequence: T1 sequence with N145R, C148R

[13] = target: T13, PUM1 PUF domain R4-CRS N971C + H972R + Q975S (UniProt Q14671)
T13 sequence: T1 sequence with N145R, C148S

[14] = target: T14, PUM1 PUF domain R4-CRV N971C + H972R + Q975V (Homo sapiens) (UniProt Q14671)
T14 sequence: T1 sequence with N145R, C148V

[15] = target: T15, PUM1 PUF domain R4-CYP N971C + H972Y + Q975P (UniProt Q14671)
T15 sequence: T1 sequence with N145Y, C148P

[16] = target: T16, PUM1 PUF domain R4-DFA N971D + H972F + Q975A (UniProt Q14671)
T16 sequence: T1 sequence with C144D, N145F, C148A

[17] = target: T17, PUM1 PUF domain R4-DFC N971D + H972F + Q975C (UniProt Q14671)
T17 sequence: T1 sequence with C144D, N145F

[18] = target: T18, PUM1 PUF domain R4-DFG N971D + H972F + Q975G (UniProt Q14671)
T18 sequence: T1 sequence with C144D, N145F, C148G

[19] = target: T19, PUM1 PUF domain R4-DFI N971D + H972F + Q975I (UniProt Q14671)
T19 sequence: T1 sequence with C144D, N145F, C148I

[20] = target: T20, PUM1 PUF domain R4-DFL N971D + H972F + Q975L (UniProt Q14671)
T20 sequence: T1 sequence with C144D, N145F, C148L

[21] = target: T21, PUM1 PUF domain R4-DFM N971D + H972F + Q975M (UniProt Q14671)
T21 sequence: T1 sequence with C144D, N145F, C148M

[22] = target: T22, PUM1 PUF domain R4-DFR N971D + H972F + Q975R (UniProt Q14671)
T22 sequence: T1 sequence with C144D, N145F, C148R

[23] = target: T23, PUM1 PUF domain R4-DFS N971D + H972F + Q975S (UniProt Q14671)
T23 sequence: T1 sequence with C144D, N145F, C148S

[24] = target: T24, PUM1 PUF domain R4-DFV N971D + H972F + Q975V (UniProt Q14671)
T24 sequence: T1 sequence with C144D, N145F, C148V

[25] = target: T25, PUM1 PUF domain R4-DHC N971D + Q975C (UniProt Q14671)
T25 sequence: T1 sequence with C144D, N145H

[26] = target: T26, PUM1 PUF domain R4-DHG N971D + Q975G (UniProt Q14671)
T26 sequence: T1 sequence with C144D, N145H, C148G

[27] = target: T27, PUM1 PUF domain R4-DHL N971D + Q975L (UniProt Q14671)
T27 sequence: T1 sequence with C144D, N145H, C148L

[28] = target: T28, PUM1 PUF domain R4-DHQ N971D (UniProt Q14671)
T28 sequence: T1 sequence with C144D, N145H, C148Q

[29] = target: T29, PUM1 PUF domain R4-DHR N971D + Q975R (UniProt Q14671)
T29 sequence: T1 sequence with C144D, N145H, C148R

[30] = target: T30, PUM1 PUF domain R4-DHS N971D + Q975S (UniProt Q14671)
T30 sequence: T1 sequence with C144D, N145H, C148S

[31] = target: T31, PUM1 PUF domain R4-DHT N971D + Q975T (UniProt Q14671)
T31 sequence: T1 sequence with C144D, N145H, C148T

[32] = target: T32, PUM1 PUF domain R4-DHV N971D + Q975V (UniProt Q14671)
T32 sequence: T1 sequence with C144D, N145H, C148V

[33] = target: T33, PUM1 PUF domain R4-DRC N971D + H972R + Q975C (UniProt Q14671)
T33 sequence: T1 sequence with C144D, N145R

[34] = target: T34, PUM1 PUF domain R4-DRG N971D + H972R + Q975G (UniProt Q14671)
T34 sequence: T1 sequence with C144D, N145R, C148G

[35] = target: T35, PUM1 PUF domain R4-DRI N971D + H972R + Q975I (UniProt Q14671)
T35 sequence: T1 sequence with C144D, N145R, C148I

[36] = target: T36, PUM1 PUF domain R4-DWA N971D + H972W + Q975A (UniProt Q14671)
T36 sequence: T1 sequence with C144D, N145W, C148A

[37] = target: T37, PUM1 PUF domain R4-DWG N971D + H972W + Q975G (UniProt Q14671)
T37 sequence: T1 sequence with C144D, N145W, C148G

[38] = target: T38, PUM1 PUF domain R4-DWI N971D + H972W + Q975I (UniProt Q14671)
T38 sequence: T1 sequence with C144D, N145W, C148I

Sequence: GGCUAGAACUAGUGGAUCCCCCGGCGCCCGGCGGCUCGAGCCCGGGUAAGUGUAGAUAGUCUGCAUGCCGCCGGGCGCCAUGCCUGCAGGUCGACUCUAGAAAACAUG
- binding signal (log2 enrichment (interaction score)) [1]: < -5.83
- binding signal (log2 enrichment (interaction score)) [2]: < -6.13
- binding signal (log2 enrichment (interaction score)) [3]: -0.21
- binding signal (log2 enrichment (interaction score)) [4]: < -6.9
- binding signal (log2 enrichment (interaction score)) [5]: < -5.62
- binding signal (log2 enrichment (interaction score)) [6]: < -7.27
- binding signal (log2 enrichment (interaction score)) [7]: -1.17
- binding signal (log2 enrichment (interaction score)) [8]: < -7.24
- binding signal (log2 enrichment (interaction score)) [9]: < -5.27
- binding signal (log2 enrichment (interaction score)) [10]: -4.23
- binding signal (log2 enrichment (interaction score)) [11]: -4.91
- binding signal (log2 enrichment (interaction score)) [12]: -6.39
- binding signal (log2 enrichment (interaction score)) [13]: < -5.87
- binding signal (log2 enrichment (interaction score)) [14]: -2.5
- binding signal (log2 enrichment (interaction score)) [15]: < -4.71
- binding signal (log2 enrichment (interaction score)) [16]: < -5.83
- binding signal (log2 enrichment (interaction score)) [17]: < -5.94
- binding signal (log2 enrichment (interaction score)) [18]: < -6.03
- binding signal (log2 enrichment (interaction score)) [19]: < -5.94
- binding signal (log2 enrichment (interaction score)) [20]: < -7.74
- binding signal (log2 enrichment (interaction score)) [21]: < -6.35
- binding signal (log2 enrichment (interaction score)) [22]: < -6.79
- binding signal (log2 enrichment (interaction score)) [23]: < -7.5
- binding signal (log2 enrichment (interaction score)) [24]: < -7.56
- binding signal (log2 enrichment (interaction score)) [25]: < -5.62
- binding signal (log2 enrichment (interaction score)) [26]: < -6.19
- binding signal (log2 enrichment (interaction score)) [27]: < -5.43
- binding signal (log2 enrichment (interaction score)) [28]: -2.77
- binding signal (log2 enrichment (interaction score)) [29]: < -6.64
- binding signal (log2 enrichment (interaction score)) [30]: < -6.61
- binding signal (log2 enrichment (interaction score)) [31]: < -6.75
- binding signal (log2 enrichment (interaction score)) [32]: < -7.26
- binding signal (log2 enrichment (interaction score)) [33]: < -7.23
- binding signal (log2 enrichment (interaction score)) [34]: < -8.85
- binding signal (log2 enrichment (interaction score)) [35]: < -5.39
- binding signal (log2 enrichment (interaction score)) [36]: < -5.33
- binding signal (log2 enrichment (interaction score)) [37]: < -6.87
- binding signal (log2 enrichment (interaction score)) [38]: < -6.97
